In paper PMC3723664:
Results are given in words; binding and its absence hold for the method and conditions named. Binding seen in cells or lysates may run through a third protein. Some binding calls cover weakened binding; strength is not graded here.

Amino acid sequences for entries named in this document (tags omitted).
UniProt Q96RD7: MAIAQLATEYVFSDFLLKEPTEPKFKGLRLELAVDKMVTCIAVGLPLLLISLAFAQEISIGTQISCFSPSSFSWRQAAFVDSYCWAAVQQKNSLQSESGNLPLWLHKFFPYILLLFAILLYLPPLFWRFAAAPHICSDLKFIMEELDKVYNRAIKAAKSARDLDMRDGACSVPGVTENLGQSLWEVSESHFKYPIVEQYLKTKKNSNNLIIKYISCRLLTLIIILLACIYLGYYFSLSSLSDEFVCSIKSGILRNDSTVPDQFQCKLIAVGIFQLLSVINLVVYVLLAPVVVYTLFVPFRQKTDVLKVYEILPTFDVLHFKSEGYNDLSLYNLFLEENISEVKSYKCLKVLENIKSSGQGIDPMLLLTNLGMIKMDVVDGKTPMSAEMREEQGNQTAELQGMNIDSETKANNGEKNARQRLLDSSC

T1: purinergic receptor P2X4 (human (endogenous in GEC)) (UniProt Q99571)
T1 sequence: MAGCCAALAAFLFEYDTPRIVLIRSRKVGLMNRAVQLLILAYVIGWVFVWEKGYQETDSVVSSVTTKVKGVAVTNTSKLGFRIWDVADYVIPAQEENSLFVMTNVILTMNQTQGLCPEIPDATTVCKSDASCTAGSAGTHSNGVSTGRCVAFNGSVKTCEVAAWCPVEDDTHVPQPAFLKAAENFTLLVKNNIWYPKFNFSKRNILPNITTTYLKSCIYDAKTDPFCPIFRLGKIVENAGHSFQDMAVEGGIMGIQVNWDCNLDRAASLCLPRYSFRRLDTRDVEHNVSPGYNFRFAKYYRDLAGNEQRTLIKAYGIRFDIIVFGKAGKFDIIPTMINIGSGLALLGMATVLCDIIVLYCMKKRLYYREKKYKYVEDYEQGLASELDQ

B1: purinergic receptor P2X7 (receptor, UniProt Q99572 1-595)
chain: MPACCSCSDVFQYETNKVTRIQSMNYGTIKWFFHVIIFSYVCFALVSDKLYQRKEPVISSVHTKVKGIAEVKEEIVENGVKKLVHSVFDTADYTFPLQGNSFFVMTNFLKTEGQEQRLCPEYPTRRTLCSSDRGCKKGWMDPQSKGIQTGRCVVYEGNQKTCEVSAWCPIEAVEEAPRPALLNSAENFTVLIKNNIDFPGHNYTTRNILPGLNITCTFHKTQNPQCPIFRLGDIFRETGDNFSDVAIQGGIMGIEIYWDCNLDRWFHHCRPKYSFRRLDDKTTNVSLYPGYNFRYAKYYKENNVEKRTLIKVFGIRFDILVFGTGGKFDIIQLVVYIGSTLSYFGLAAVFIDFLIDTYSSNCCRSHIYPWCKCCQPCVVNEYYYRKKCESIVEPKPTLKYVSFVDESHIRMVNQQLLGRSLQDVKGQEVPRPAMDFTDLSRLPLALHDTPPIPGQPEEIQLLRKEATPRSRDSPVWCQCGSCLPSQLPESHRCLEELCCRKKPGACITTSELFRKLVLSRHVLQFLLLYQEPLLALDVDSTNSRLRHCAYRCYATWRFGSQDMADFAILPSCCRWRIRKEFPKSEGQYSGFKSPY

Target: T1, purinergic receptor P2X4 (human (endogenous in GEC))
Assay: co-IP; GEC extracts incubated 3 h at 4°C with Dynabeads pre-coupled with polyclonal anti-P2X4 antibody; Dynabeads as control; immunoblots with anti-P2X7, anti-pannexin-1, anti-P2X4

Molecule | binding
pannexin-1 (from UniProt Q96RD7 1-426) | binds
B1 | binds
